Reference: US20030139584A1
Results are given in words; binding and its absence hold for the method and conditions named. In cells and extracts the contact can be indirect. Binding can be weak; no strength is given. Sequences can lack the tags named with a protein.

Biological target: FLAG-tagged TRAF3
Experiment: summary of the first series (co-immunoprecipitation)

B1: myc-tagged TREX (protein, not shown: small tags and cut ends)
chain: MTGYTMLRNGGVGNGGQTCMLRWSNRIRLTWLSFTLFIILVFFPLIAHYYLTTLDEADEAGKRIFGPRAGSELCEVKHVLDLCRIRESVSEELLQLEAKRQELNSEIAKLNLKIEACKKSIENAKQDLLQLKNVISQTEHSYKELMAQNQPKLSLPIRLLPEKDDAGLPPPKVTRGCRLHNCFDYSRCPLTSGFPVYVYDSDQFAFGSYLDPLVKQAFQATVRANVYVTENAAIACLYVVLVGEMQEPTVLRPADLEKQLFSLPHWRTDGHNHVIINLSRKSDTQNLLYNVSTGRHVAQSTLYAAQYRAGFDLVVSPLVHAMSEPNFMEIPPQVPVKRKYLFTFQGEKIESLRSSLQEARSFEEEMEGDPPADYDDRIIATLKAVQDSKLDQVLVEFTCKNQPKPSLPTEWALCGEREDRLELLKLSTFALIITPGDPRLLISSGCATRLFEALEVGAVPVVLGEQVQLPYHDMLQWNEAALVVPKPRVTEVHFLLRSLSDSDLLAMRRQGRFLWETYFSTADSIFNTVLAMIRTRIQIPAAPIREEVAAEIPHRSGKAAGTDPNMADNGDLDLGPVETEPPYASPKYLRNFTLTVTDCYRGWNSAPGRFHLFPHTPFDPVLPSEAKFLGSGTGFRPIGGGAGGSGKEFQAALGGNVQREQFTVVMLTYEREEVLMNSLERLNGLPYLNKVVVVWNSPKLPSEDLLWPDIGVPIMVVRTEKNSLNNRFLPWNEIETEAILSIDDDAHLRHDEIMFGFWVWREARDRIVGFPGRYHAWDIPHQSWLYNSNYSCELSMVLTGAAFFHKYYAYLYSYVMPQAIRDMVDEYINCEDIAMNFLVSHITRKPPIKVTSRWTFRCPGCPQALSHDDSHFHERHKCINFFVKVYGYMPLLYTQFRVDSVLFKTRLPHDKTKCFKFI
For B1, the binding was “binds”.
